PubChem BioAssay AID1259302 | Sanger Institute | 2017

Test: 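Kinome siRNAs acting in synergy with BYL719, cetuximab or trametinib in colorectal cancer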 (follow-up of hits)
Cell system: human SW1116 colorectal cancer cells
Reagent: single siRNA against human genes
Treatment: anchor drugs BYL719 at 1 µM, cetuximab at 5 µg/ml or trametinib at 10 nM, each compared with DMSO vehicle; exposure time not given
Detection: 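Mean replicate viability as a ratio to pooled non-targeting control siRNA, plus per-drug synergy scores comparing siRNA with drug against each given on its own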
Reading the numbers: synergy score with trametinib and synergy score with BYL719 and synergy score with cetuximab: higher = stronger synthetic lethal interaction with the drug
Call rule: 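Active means a synergy score over 0.10 with any one of the three anchor drugs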
Shown is a random part of 160 deposited reagents. In the full data, 122 (76%) are marked active. 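Most active calls come from the trametinib arm; viability under BYL719 or cetuximab treatment is not printed.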 A number with no mark means an inactive call. Reagents against one gene are numbered here. Further read-outs or replicates are left out here. Not stated in the record: the amount of reagent, the time to read-out.

gene symbol	reagent no.	synergy score with trametinib	synergy score with BYL719	synergy score with cetuximab
SF3B1 (splicing factor 3b subunit 1)	1	-0.0403	-0.117	-0.0349
SF3B1 (splicing factor 3b subunit 1)	2	0.0519	-0.0472	0.0219
SF3B1 (splicing factor 3b subunit 1)	3	0.105 (active)	0.0453	0.0372
SF3B1 (splicing factor 3b subunit 1)	4	0.00604	-0.0994	-0.0115
IRAK3 (interleukin 1 receptor associated kinase 3)	1	0.144 (active)	-0.0279	0.115
IRAK3 (interleukin 1 receptor associated kinase 3)	2	0.291 (active)	-0.155	0.136
IRAK3 (interleukin 1 receptor associated kinase 3)	3	0.0666 (active)	-0.0325	0.191
IRAK3 (interleukin 1 receptor associated kinase 3)	4	0.118 (active)	-0.17	0.02
GUCY2D (guanylate cyclase 2D, retinal)	1	0.161 (active)	0.0178	0.0454
GUCY2D (guanylate cyclase 2D, retinal)	2	0.216 (active)	0.0149	0.142
GUCY2D (guanylate cyclase 2D, retinal)	3	0.0568	-0.1	-0.0683
GUCY2D (guanylate cyclase 2D, retinal)	4	0.109 (active)	-0.0894	0.0186
CRIM1 (cysteine rich transmembrane BMP regulator 1)	1	0.0864 (active)	-0.146	0.102
CRIM1 (cysteine rich transmembrane BMP regulator 1)	2	0.0551	0.0144	0.0566
CRIM1 (cysteine rich transmembrane BMP regulator 1)	3	0.111 (active)	0.125	0.0411
CRIM1 (cysteine rich transmembrane BMP regulator 1)	4	0.211 (active)	0.121	0.0709
PINK1 (PTEN induced kinase 1)	1	0.0432	-0.124	0.0346
PINK1 (PTEN induced kinase 1)	2	0.256 (active)	0.033	0.12
PINK1 (PTEN induced kinase 1)	3	0.207 (active)	0.0107	0.151
PINK1 (PTEN induced kinase 1)	4	0.294 (active)	0.0364	0.0635
COASY (Coenzyme A synthase)	1	0.189 (active)	0.0915	0.0895
COASY (Coenzyme A synthase)	2	0.118 (active)	-0.0352	0.0889
COASY (Coenzyme A synthase)	3	0.239 (active)	0.0684	0.186
COASY (Coenzyme A synthase)	4	0.186 (active)	0.0545	0.268
KCNH8 (potassium voltage-gated channel subfamily H member 8)	1	0.541 (active)	0.232	0.411
KCNH8 (potassium voltage-gated channel subfamily H member 8)	2	0.289 (active)	-0.0749	0.124
KCNH8 (potassium voltage-gated channel subfamily H member 8)	3	0.268 (active)	-0.0896	0.177
KCNH8 (potassium voltage-gated channel subfamily H member 8)	4	0.241 (active)	-0.00925	0.116
CSNK2A2 (casein kinase 2 alpha 2)	1	0.294 (active)	0.0136	0.0203
CSNK2A2 (casein kinase 2 alpha 2)	2	0.0686	0.0667	0.0507
CSNK2A2 (casein kinase 2 alpha 2)	3	0.303 (active)	0.0426	0.143
CSNK2A2 (casein kinase 2 alpha 2)	4	0.193 (active)	-0.0293	0.105
MAPK4 (mitogen-activated protein kinase 4)	1	0.12 (active)	0.0915	0.0736
MAPK4 (mitogen-activated protein kinase 4)	2	0.185 (active)	-0.0666	0.0852
MAPK4 (mitogen-activated protein kinase 4)	3	0.319 (active)	0.119	0.228
MAPK4 (mitogen-activated protein kinase 4)	4	0.193 (active)	0.0134	0.126
PIM1 (Pim-1 proto-oncogene, serine/threonine kinase)	1	0.145 (active)	-0.0101	0.16
PIM1 (Pim-1 proto-oncogene, serine/threonine kinase)	2	0.141 (active)	-0.00181	0.0533
PIM1 (Pim-1 proto-oncogene, serine/threonine kinase)	3	-0.176	-0.135	-0.114
PIM1 (Pim-1 proto-oncogene, serine/threonine kinase)	4	0.136 (active)	-0.01	0.092
CDK6 (cyclin dependent kinase 6)	1	0.182 (active)	-0.0967	0.166
CDK6 (cyclin dependent kinase 6)	2	0.313 (active)	-0.0484	0.167
CDK6 (cyclin dependent kinase 6)	3	0.222 (active)	-0.095	0.018
CDK6 (cyclin dependent kinase 6)	4	0.295 (active)	0.00215	0.204
CDKN2D (cyclin dependent kinase inhibitor 2D)	1	0.352 (active)	-0.0441	0.0137
CDKN2D (cyclin dependent kinase inhibitor 2D)	2	0.248 (active)	-0.0122	0.143
CDKN2D (cyclin dependent kinase inhibitor 2D)	3	0.231 (active)	-0.0232	0.115
CDKN2D (cyclin dependent kinase inhibitor 2D)	4	0.356 (active)	0.0623	0.17
NR2F2 (nuclear receptor subfamily 2 group F member 2)	1	0.099	-0.19	-0.138
NR2F2 (nuclear receptor subfamily 2 group F member 2)	2	0.157 (active)	-0.054	0.0956
NR2F2 (nuclear receptor subfamily 2 group F member 2)	3	0.308 (active)	0.013	0.228
NR2F2 (nuclear receptor subfamily 2 group F member 2)	4	0.298 (active)	0.0522	0.147
EPHA6 (EPH receptor A6)	1	0.314 (active)	-0.0447	0.164
EPHA6 (EPH receptor A6)	2	0.264 (active)	0.0961	0.231
EPHA6 (EPH receptor A6)	3	0.122 (active)	-0.111	0.0945
EPHA6 (EPH receptor A6)	4	0.221 (active)	0.188	0.192
IKBKB (inhibitor of nuclear factor kappa B kinase subunit beta)	1	0.182 (active)	-0.114	-0.006
IKBKB (inhibitor of nuclear factor kappa B kinase subunit beta)	2	0.0738	-0.0446	0.0855
IKBKB (inhibitor of nuclear factor kappa B kinase subunit beta)	3	0.0631 (active)	0.0136	0.144
IKBKB (inhibitor of nuclear factor kappa B kinase subunit beta)	4	0.0428	-0.0776	-0.0388
GRK5 (G protein-coupled receptor kinase 5)	1	0.0275	0.0272	0.0335
GRK5 (G protein-coupled receptor kinase 5)	2	0.0839	-0.107	-0.0565
GRK5 (G protein-coupled receptor kinase 5)	3	0.326 (active)	0.0119	0.0521
GRK5 (G protein-coupled receptor kinase 5)	4	0.241 (active)	0.0565	0.0788

Ordered by “synergy score with trametinib” (ascending): some entries from above
gene symbol	reagent no.	synergy score with trametinib	synergy score with BYL719	synergy score with cetuximab
IKBKB (inhibitor of nuclear factor kappa B kinase subunit beta)	4	0.0428	-0.0776	-0.0388
IKBKB (inhibitor of nuclear factor kappa B kinase subunit beta)	3	0.0631 (active)	0.0136	0.144
IKBKB (inhibitor of nuclear factor kappa B kinase subunit beta)	2	0.0738	-0.0446	0.0855
EPHA6 (EPH receptor A6)	3	0.122 (active)	-0.111	0.0945
IKBKB (inhibitor of nuclear factor kappa B kinase subunit beta)	1	0.182 (active)	-0.114	-0.006
EPHA6 (EPH receptor A6)	4	0.221 (active)	0.188	0.192
EPHA6 (EPH receptor A6)	2	0.264 (active)	0.0961	0.231
NR2F2 (nuclear receptor subfamily 2 group F member 2)	4	0.298 (active)	0.0522	0.147
NR2F2 (nuclear receptor subfamily 2 group F member 2)	3	0.308 (active)	0.013	0.228
EPHA6 (EPH receptor A6)	1	0.314 (active)	-0.0447	0.164
